# In PubChem BioAssay AID624297 (National Center for Advancing Translational Sciences (NCATS), 2012):
# In all, about 340,000 compounds went through this assay and about 6,200 (1.8%) were called active. Inconclusive means that the source gave no clear call. Such entries were picked first, then a sample of the others. Calls follow the shape of the dose curve; as a rule, active = well fitted activation curve with a large enough effect; inconclusive = small, poorly fitted or top-dose-only effect; inactive = no such curve, though single readings can be large or run the other way. Where the call is inconclusive, the potency comes from a doubtful curve fit.
# Assay: A quantitative high throughput screen for small molecules that induce DNA re-replication in SW480 colon adenocarcinoma cells. Also: nearly all actives have a fitted effect of over 55% in size. As to re-replication activation: % of control where 0% means no effect.
# Conditions: Hoechst DNA content imaging, 48 h; re-replication activation: at 46.1 µM (top of the series)
# How it was run: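 Readout is total intensity of Hoechst-stained nuclei, excited at 405 nm and collected at 500-530 nm. Compound treatment lasted 48 hr at 37 C in 5% CO2 before staining.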
# Potency is read from the fitted curve at half-maximal effect.
Structure (SMILES),Potency,re-replication activation
COc1ccc(CCNC(=O)/C(C#N)=C/c2cccc(OCc3ccccc3)c2)cc1OC,"inconclusive: 23.1 µM [activator, partial curve, poor fit]",–
COCCCn1c(C(=O)NCCN2CCOCC2)cc2c(=O)n3cccc(C)c3nc21,"inconclusive: 29.1 µM [activator, single point]",–
Cc1cc(C)c(S(=O)(=O)NC(CC(=O)O)c2cccc([N+](=O)[O-])c2)c(C)c1 (stereo unspecified),"inconclusive: 25.9 µM [activator, single point]",–
C=CCNC(=O)c1ccc(OC2CCN(S(=O)(=O)N(C)C)CC2)cc1,"inconclusive: 1.84 µM [activator, partial curve, poor fit]",–
CN1CCN(c2ccc(S(=O)(=O)N3CCOCC3)cc2NC(=O)C2CCCCC2)CC1,"inconclusive: 3.26 µM [activator, single point]",–
COc1ccc(OCC(=O)NCc2n[nH]c(=O)c3ccccc23)cc1,"inconclusive: 6.51 µM [activator, single point]",–
CC(=O)N[C@@H](Cc1c[nH]c2ccccc12)C(=O)OCC(=O)Nc1cc(C)on1,–,inactive: -12%
O=C(NCCCN1CCCC1=O)c1cc(-c2ccc(F)cc2)nc2ccccc12,–,inactive: -0.973%
CCc1ccc(/C=C2/SC(=S)N(CCC(=O)NCCCN3CCOCC3)C2=O)cc1,–,inactive: 1.77%
Cc1cccc(/C=N/NC(=O)c2ccncc2)n1,"inconclusive: 1.03 µM [activator, partial curve, poor fit]",–
CC(C)CCNC(=O)C(=O)Nc1cc2c3c(c1)CCC(=O)N3CCC2,–,inactive: -7.8%
CC1CCN(C(=O)c2ccc3c(c2)OCO3)CC1,"inconclusive: 2.91 µM [activator, full curve, poor fit]",–
CN(C(=O)CSc1nnc(-c2ccco2)n1N)C1CCCCC1,"inconclusive: 32.6 µM [activator, partial curve, poor fit]",–
Cc1ccc(-n2c(=O)c3ccccc3n(CC(=O)C(C)(C)C)c2=O)cc1,–,inactive: -6.74%
COc1ccccc1NC(=O)Nc1nnc(CC(=O)Nc2ccccc2C)s1,–,inactive: -2.27%
COC(=O)c1ccsc1NC(=O)CCS(=O)(=O)c1ccccc1,"inconclusive: 20.6 µM [activator, single point]",–
OC[C@@H]1[C@@H](c2ccc(F)cc2)C(c2cccc(Cl)c2)=NN1c1ccccc1,active: 0.13 µM,–
Cc1cc(C)c2nc3sc(C(=O)N4CCOCC4)c(N)c3cc2c1,"inconclusive: 0.461 µM [activator, full curve, poor fit]",–

Structure (SMILES),Potency,re-replication activation
O=C(CSc1nnc(-c2ccc3c(c2)OCO3)n1-c1ccccc1)c1ccccc1,–,inactive: -1.6%
Cc1cccc(-c2n[nH]c(=S)n2/N=C/c2ccc(C)o2)c1,–,inactive: -8.65%
Cc1cccc(N=N/C(=C\O)C(=O)c2ccc(Br)cc2)c1,"inconclusive: 29.1 µM [activator, single point]",–
COc1ccccc1NS(=O)(=O)c1cccc(NS(=O)(=O)c2ccc(Cl)c(C(=O)O)c2)c1,–,inactive: -4.33%
COc1ccc(-c2n[nH]c3c2CN(C(=O)c2ccc(OC)c(OC)c2)CC3)cc1,"inconclusive: 18.4 µM [activator, single point]",–
COc1ccc2nc(C)cc(NCc3cccc(C(F)(F)F)c3)c2c1,active: 23.1 µM,–
O=C(CN(C(=O)CSc1nnc(COc2ccccc2)o1)c1ccc(F)cc1)NC1CCCC1,–,inactive: 4.92%
COc1ccc(C(=O)NNC(=O)c2cccc(S(=O)(=O)N3CCOCC3)c2)cc1,–,inactive: 1.54%
O=C(CCN1C(=O)/C(=C/c2ccccc2F)SC1=S)N[C@@H](CO)Cc1ccccc1,active: 22.4 µM,–
O=C(N/N=C/c1ccc(F)cc1)c1ccc(OCc2ccccc2)cc1,–,inconclusive: 28.8% [activator]
COc1ccc(C=CC(=O)c2ccc(OC)c(OC)c2O)cc1OC,"inconclusive: 20.6 µM [activator, single point]",–
CN(C)S(=O)(=O)N1CCN(c2ccc([N+](=O)[O-])c(NC3CC3)c2)CC1,–,inactive: 11.6%
CC(C)C(C(=O)Nc1ccncc1)c1ccc(Cl)cc1 (stereo unspecified),"inconclusive: 18.4 µM [activator, single point]",–
O=C(Nc1cccc(S(=O)(=O)C(F)F)c1)c1ccc(Cl)c(S(=O)(=O)N2CCOCC2)c1,–,inactive: -5.46%
CCc1ccc(-c2cc(C(=O)N/N=C/c3c[nH]c4ccccc34)[nH]n2)cc1,active: 6.51 µM,–
COCCn1cnnc1SCC(=O)Nc1cccc(S(=O)(=O)N2CCCCCC2)c1,"inconclusive: 4.11 µM [activator, full curve, poor fit]",–
CC1CCN(C(=O)Cn2c(=O)n(CCCC(=O)NCc3ccco3)c(=O)c3sccc32)CC1,"inconclusive: 23.1 µM [activator, partial curve, poor fit]",–
CC(C)=NNc1nc(-c2ccc([N+](=O)[O-])cc2)cs1,–,inactive: -3.93%

# Gathered by group: the compounds so far containing a COOH group (2)
Structure (SMILES),Potency,re-replication activation
Cc1cc(C)c(S(=O)(=O)NC(CC(=O)O)c2cccc([N+](=O)[O-])c2)c(C)c1 (stereo unspecified),"inconclusive: 25.9 µM [activator, single point]",–
COc1ccccc1NS(=O)(=O)c1cccc(NS(=O)(=O)c2ccc(Cl)c(C(=O)O)c2)c1,–,inactive: -4.33%
